Among the data in PubChem BioAssay AID248 (DTP/NCI, 2004) are T/C values, retold here.

The test concerns L1210 leukemia ip in BDF1 mice, survival T/C. The test can be described thus: NCI In Vivo Anticancer Drug Screen. Data for tumor model L1210 Leukemia (intraperitoneal) in B6D2F1 (BDF1) mice. Particulars: T/C endpoint: mean survival time, higher T/C = longer survival.
Where [1] appears, read: dose: 50.0 mg/kg/injection, schedule: Q04DX003 (ip), vehicle: saline with Tween-80.
Setting [2] is: dose: 100.0 mg/kg/injection, schedule: Q04DX003 (ip), vehicle: saline with Tween-80.
[3] abbreviates: dose: 12.5 mg/kg/injection, schedule: Q01DX009 (ip), vehicle: saline.
Where [4] appears, read: dose: 25.0 mg/kg/injection, schedule: Q01DX009 (ip), vehicle: saline.
Setting [5] is: dose: 25.0 mg/kg/injection, schedule: Q04DX003 (ip), vehicle: saline.
The mark [6] stands for this setting: dose: 50.0 mg/kg/injection, schedule: Q04DX003 (ip), vehicle: saline.
The mark [7] stands for this setting: dose: 100.0 mg/kg/injection, schedule: Q01DX009 (ip), vehicle: saline.

Each structure is given as a SMILES string. The list is a part of this screen's results and no random one: its compounds were picked by chemical class. Other doses and runs of a compound may be missing. T/C: endpoint of the treated group in % of that of the vehicle group. Where survival is the endpoint, the PubChem record calls one and a half times the control and up active, and a quarter to a half above the control has no call in these data; cut-offs in other NCI protocols can differ. Some entries show no survivor count and are marked so; the dose need not have been tolerated. Schedule codes are those of the source, taken here to give the interval after Q, in days (D) or hours (H), and the number of doses after X. Some doses were run more than once; the results are listed from low to high.

With `CN(C)CC1CCCCCC1OC(=O)C(O)(c1ccccc1)c1ccccc1` (stereo unspecified), the T/C is 96 % of control [survivor count not shown] (dose: 10.0 mg/kg/injection, schedule: Q01DX001 (ip), vehicle: other); 98 % of control [survivor count not shown] (dose: 19.0 mg/kg/injection, schedule: Q01DX001 (ip), vehicle: other); 105 % of control [survivor count not shown] (dose: 38.0 mg/kg/injection, schedule: Q01DX001 (ip), vehicle: other).
For the molecule `ClCCNCCCl.O=C(O)c1cccc2ccccc12`, the T/C under setting [1] was 92 % of control [survivor count not shown]; the T/C under setting [2] is 109 % of control [survivor count not shown]; the T/C (dose: 200.0 mg/kg/injection, schedule: Q04DX003 (ip), vehicle: saline with Tween-80) was 147 % of control [survivor count not shown].
For `CC1CN(CCCOC(=O)C(O)(c2ccccc2)c2ccccc2)CCN1C` (stereo unspecified), the T/C runs as follows: (dose: 0.78 mg/kg/injection, schedule: Q04DX003 (ip), vehicle: saline) 101 % of control [survivor count not shown]; (dose: 1.56 mg/kg/injection, schedule: Q04DX003 (ip), vehicle: saline) 101 % of control [survivor count not shown]; (dose: 3.12 mg/kg/injection, schedule: Q01DX009 (ip), vehicle: saline) 97 % of control [survivor count not shown]; (dose: 3.12 mg/kg/injection, schedule: Q04DX003 (ip), vehicle: saline) 95 % of control [survivor count not shown]; (dose: 6.25 mg/kg/injection, schedule: Q01DX009 (ip), vehicle: saline) 103 % of control [survivor count not shown]; (dose: 6.25 mg/kg/injection, schedule: Q04DX003 (ip), vehicle: saline) 109 % of control [survivor count not shown]. The T/C reads like this: under setting [3], 102 % of control [survivor count not shown]; (dose: 12.5 mg/kg/injection, schedule: Q04DX003 (ip), vehicle: saline) 98 % of control [survivor count not shown]; under setting [4], 97 % of control [survivor count not shown]; under setting [5], 92 % of control [survivor count not shown].
As to `C#CCN(CCCl)CCCl`, the T/C runs as follows: (dose: 4.0 mg/kg/injection, schedule: Q01DX001 (ip), vehicle: saline) 117 % of control [survivor count not shown]; (dose: 4.0 mg/kg/injection, schedule: Q01DX015 (ip), vehicle: saline) 119 % of control [survivor count not shown]; (dose: 7.1 mg/kg/injection, schedule: Q01DX001 (ip), vehicle: saline) 109 % of control [survivor count not shown]; (dose: 8.0 mg/kg/injection, schedule: Q01DX001 (ip), vehicle: saline) 114 % of control [survivor count not shown]; (dose: 8.0 mg/kg/injection, schedule: Q01DX015 (ip), vehicle: saline) 132 % of control [survivor count not shown]; (dose: 10.67 mg/kg/injection, schedule: Q01DX001 (ip), vehicle: saline) 114 % of control [survivor count not shown]. Also, the T/C reads like this: (dose: 16.0 mg/kg/injection, schedule: Q01DX001 (ip), vehicle: saline) 117 [survivor count not shown], 129 [survivor count not shown], 138 % of control [survivor count not shown]; (dose: 24.0 mg/kg/injection, schedule: Q01DX001 (ip), vehicle: saline) 143 % of control [survivor count not shown]; (dose: 32.0 mg/kg/injection, schedule: Q01DX001 (ip), vehicle: saline) 125 [survivor count not shown] and 132 % of control [survivor count not shown].
With `CN1CCN(NCCN2CCCC(OC(=O)C(O)(c3ccccc3)c3ccccc3)C2)CC1` (stereo unspecified), the T/C reads like this: under setting [3], 100 % of control [survivor count not shown]; under setting [4], 89 [survivor count not shown] and 108 % of control [survivor count not shown]; under setting [5], 103 % of control [survivor count not shown]; (dose: 50.0 mg/kg/injection, schedule: Q01DX009 (ip), vehicle: saline) 87 [survivor count not shown] and 95 % of control [survivor count not shown]; under setting [6], 100 % of control [survivor count not shown]; under setting [7], 86 [survivor count not shown] and 91 % of control [survivor count not shown]. The T/C by setting is: (dose: 100.0 mg/kg/injection, schedule: Q04DX003 (ip), vehicle: saline) 100 % of control [survivor count not shown]; (dose: 200.0 mg/kg/injection, schedule: Q01DX009 (ip), vehicle: saline) 93 [survivor count not shown] and 102 % of control [survivor count not shown]; (dose: 200.0 mg/kg/injection, schedule: Q04DX003 (ip), vehicle: saline) 87 % of control [survivor count not shown].
For `O=C(OCC1CCCCN1)C(O)(c1ccccc1)c1ccccc1` (stereo unspecified), the T/C by setting is: under setting [5], 98 % of control [survivor count not shown]; under setting [6], 102 % of control [survivor count not shown]; under setting [7], 89 % of control [survivor count not shown].
`O=C(CCN1CCC(OC(=O)C(O)(c2ccccc2)c2ccccc2)CC1)NCc1ccccc1`: the T/C by setting is: (dose: 25.0 mg/kg/injection, schedule: Q04DX003 (ip), vehicle: saline with Tween-80) 112 % of control [survivor count not shown]; under setting [1], 96 % of control [survivor count not shown]; under setting [2], 87 [survivor count not shown] and 92 % of control [survivor count not shown].
Regarding `O=C(SC1CN2CCC1CC2)C(O)(c1ccccc1)c1ccccc1` (stereo unspecified), the T/C runs as follows: (dose: 50.0 mg/kg/injection, schedule: Q04DX002 (ip), vehicle: saline with Tween-80) 105 % of control [survivor count not shown]; (dose: 100.0 mg/kg/injection, schedule: Q04DX002 (ip), vehicle: saline with Tween-80) 94 % of control [survivor count not shown]; (dose: 200.0 mg/kg/injection, schedule: Q04DX002 (ip), vehicle: saline with Tween-80) 88 % of control [survivor count not shown].
With `CN1CCC(OC(=O)C(O)(C#Cc2ccccc2)c2ccccc2)CC1` (stereo unspecified), the T/C was 99 % of control [survivor count not shown] (dose: 100.0 mg/kg/injection, schedule: Q04DX003 (ip), vehicle: gum acacia); 94 % of control [survivor count not shown] (dose: 200.0 mg/kg/injection, schedule: Q04DX003 (ip), vehicle: gum acacia); 97 % of control [survivor count not shown] (dose: 400.0 mg/kg/injection, schedule: Q04DX003 (ip), vehicle: gum acacia).
